In patent US20250346657A1 (INTERVET, published 2025):
These are yes or no findings as the source states them, for the method shown. Some results given as binding are weak or reduced against the parent protein; the word gives no strength.

B1: fFulVH2-fIgG1am4/fFulVL1-fCk (antibody)
heavy: EVQLVESGGDLVQPGGSLRLTCVASGFTFSSYSMNWVRQAPGKGLQWVSYISRSSHTIFYADSVKGRFTISRDNAKNTLYLQMDSLKDEDTATYYCARVYSSGWHVSDYFDYWGQGILVTVSSASTTAPSVFPLAPSCGTTSGATVALACLVLGYFPEPVTVSWNSGALTSGVHTFPAVLQASGLYSLSSMVTVPSSRWLSDTFTCNVAHPPSNTKVDKTVRKTDHPPGPKPCDCPKCPPPEMLGGPSIFIFPPKPKDTLSISRTPEVTCLVVALGPDDSDVQITWFVDNTQVYTAKTSPREEQFASTYRVVSVLPILHQDWLKGKEFKCKVNSKSLPSPIERTISKAKGQPHEPQVYVLPPAQEELSRNKVSVTCLIKSFHPPDIAVEWEITGQPEPENNYRTTPPQLDSDGTYFVYSKLSVDRSHWQRGNTYTCSVSHEALHSHHTQKSLTQSPGK
light: EIQLTQSPSSLSASPGDRVTITCRASQGISSALAWYQQKPGKVPKLLIYDASSLESGVPSRFSGSGSGTDFTLTISSLEPEDAATYYCQQFNSYPLTFGQGTKLEIKRSDAQPSVFLFQPSLDELHTGSASIVCILNDFYPKEVNVKWKVDGVVQNKGIQESTTEQNSKDSTYSLSSTLTMSSTEYQSHEKFSCEVTHKSLASTLVKSFNRSECQRE
B2: fFulVH2-fIgG1am4/fFulVL2-fCk (antibody)
heavy: EVQLVESGGDLVQPGGSLRLTCVASGFTFSSYSMNWVRQAPGKGLQWVSYISRSSHTIFYADSVKGRFTISRDNAKNTLYLQMDSLKDEDTATYYCARVYSSGWHVSDYFDYWGQGILVTVSSASTTAPSVFPLAPSCGTTSGATVALACLVLGYFPEPVTVSWNSGALTSGVHTFPAVLQASGLYSLSSMVTVPSSRWLSDTFTCNVAHPPSNTKVDKTVRKTDHPPGPKPCDCPKCPPPEMLGGPSIFIFPPKPKDTLSISRTPEVTCLVVALGPDDSDVQITWFVDNTQVYTAKTSPREEQFASTYRVVSVLPILHQDWLKGKEFKCKVNSKSLPSPIERTISKAKGQPHEPQVYVLPPAQEELSRNKVSVTCLIKSFHPPDIAVEWEITGQPEPENNYRTTPPQLDSDGTYFVYSKLSVDRSHWQRGNTYTCSVSHEALHSHHTQKSLTQSPGK
light: AITLTQSPGSLAGSPGQQVTITCRASQGISSALAWYQQKPGQHPKLLIYDASSLESGVPDRFSGSGSGTDFTLTISNLQAEDVASYYCQQFNSYPLTFGQGTKLEIKRSDAQPSVFLFQPSLDELHTGSASIVCILNDFYPKEVNVKWKVDGVVQNKGIQESTTEQNSKDSTYSLSSTLTMSSTEYQSHEKFSCEVTHKSLASTLVKSFNRSECQRE
B3: fFulVH4-fIgG1am4/fFulVL1-fCk (antibody)
heavy: EVQLVESEGDLVQPGGSLRLTCVASGFTFSSYSMNWVRQAPGKGLQWVSYISRSSHTIFYADSVKGRFTISRDNAKNTLYLQMDSLKDEDTATYYCARVYSSGWHVSDYFDYWGQGILVTVSSASTTAPSVFPLAPSCGTTSGATVALACLVLGYFPEPVTVSWNSGALTSGVHTFPAVLQASGLYSLSSMVTVPSSRWLSDTFTCNVAHPPSNTKVDKTVRKTDHPPGPKPCDCPKCPPPEMLGGPSIFIFPPKPKDTLSISRTPEVTCLVVALGPDDSDVQITWFVDNTQVYTAKTSPREEQFASTYRVVSVLPILHQDWLKGKEFKCKVNSKSLPSPIERTISKAKGQPHEPQVYVLPPAQEELSRNKVSVTCLIKSFHPPDIAVEWEITGQPEPENNYRTTPPQLDSDGTYFVYSKLSVDRSHWQRGNTYTCSVSHEALHSHHTQKSLTQSPGK
light: EIQLTQSPSSLSASPGDRVTITCRASQGISSALAWYQQKPGKVPKLLIYDASSLESGVPSRFSGSGSGTDFTLTISSLEPEDAATYYCQQFNSYPLTFGQGTKLEIKRSDAQPSVFLFQPSLDELHTGSASIVCILNDFYPKEVNVKWKVDGVVQNKGIQESTTEQNSKDSTYSLSSTLTMSSTEYQSHEKFSCEVTHKSLASTLVKSFNRSECQRE
B4: fFulVH4-fIgG1am4/fFulVL2-fCk (antibody)
heavy: EVQLVESEGDLVQPGGSLRLTCVASGFTFSSYSMNWVRQAPGKGLQWVSYISRSSHTIFYADSVKGRFTISRDNAKNTLYLQMDSLKDEDTATYYCARVYSSGWHVSDYFDYWGQGILVTVSSASTTAPSVFPLAPSCGTTSGATVALACLVLGYFPEPVTVSWNSGALTSGVHTFPAVLQASGLYSLSSMVTVPSSRWLSDTFTCNVAHPPSNTKVDKTVRKTDHPPGPKPCDCPKCPPPEMLGGPSIFIFPPKPKDTLSISRTPEVTCLVVALGPDDSDVQITWFVDNTQVYTAKTSPREEQFASTYRVVSVLPILHQDWLKGKEFKCKVNSKSLPSPIERTISKAKGQPHEPQVYVLPPAQEELSRNKVSVTCLIKSFHPPDIAVEWEITGQPEPENNYRTTPPQLDSDGTYFVYSKLSVDRSHWQRGNTYTCSVSHEALHSHHTQKSLTQSPGK
light: AITLTQSPGSLAGSPGQQVTITCRASQGISSALAWYQQKPGQHPKLLIYDASSLESGVPDRFSGSGSGTDFTLTISNLQAEDVASYYCQQFNSYPLTFGQGTKLEIKRSDAQPSVFLFQPSLDELHTGSASIVCILNDFYPKEVNVKWKVDGVVQNKGIQESTTEQNSKDSTYSLSSTLTMSSTEYQSHEKFSCEVTHKSLASTLVKSFNRSECQRE

Biological target: feline NGF (feline)
Assay: ELISA, feline NGF

binding, binds:
B1
B2
B3
B4
